For the assay, the target named is human Orai1 S239A, C-terminally GFP-tagged (Orai1S239A-GFP) (human) (UniProt Q96D31). Description: FRET or BRET; TIRF-FRET (sensitized emission, apparent EFRET) in HEKS1 cells (stably expressing STIM1) co-expressing GFP- and RFP-tagged Orai1 subunits, after Tg-induced store depletion; control or 10 min pretreatment with 1 mM H2O2.

By UniProt entry, the sequences of proteins in these tests, tags left out. Where a name states a change or a piece, a line headed by the entry shows the natural chain unless it says otherwise.
UniProt Q96D31: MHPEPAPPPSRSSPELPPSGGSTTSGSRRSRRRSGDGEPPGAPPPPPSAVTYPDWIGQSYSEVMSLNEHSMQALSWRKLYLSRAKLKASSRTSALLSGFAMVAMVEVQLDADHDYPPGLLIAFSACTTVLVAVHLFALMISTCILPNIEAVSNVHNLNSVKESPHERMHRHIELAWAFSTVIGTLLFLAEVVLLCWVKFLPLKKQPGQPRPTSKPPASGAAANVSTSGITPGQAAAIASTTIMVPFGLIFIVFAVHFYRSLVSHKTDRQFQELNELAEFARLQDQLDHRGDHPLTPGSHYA

Results are given in words; binding and its absence hold for the method and conditions named. Binding seen in cells or lysates may run through a third protein. Some entries that bind do so weakly or less than the wild type.

Take “human Orai1 S239A, C-terminally GFP-tagged (Orai1S239A-GFP) (from UniProt Q96D31 1-301)”: the binding result is recorded as “binds”.
